Results on 37 targets are retold here after the supplement of paper PMC7666118.

Chains of the proteins cited; added tags and fusions are not shown. Lines headed by an entry give the natural chain unless they say otherwise; changes in a name come on top.
UniProt Q8N0V3: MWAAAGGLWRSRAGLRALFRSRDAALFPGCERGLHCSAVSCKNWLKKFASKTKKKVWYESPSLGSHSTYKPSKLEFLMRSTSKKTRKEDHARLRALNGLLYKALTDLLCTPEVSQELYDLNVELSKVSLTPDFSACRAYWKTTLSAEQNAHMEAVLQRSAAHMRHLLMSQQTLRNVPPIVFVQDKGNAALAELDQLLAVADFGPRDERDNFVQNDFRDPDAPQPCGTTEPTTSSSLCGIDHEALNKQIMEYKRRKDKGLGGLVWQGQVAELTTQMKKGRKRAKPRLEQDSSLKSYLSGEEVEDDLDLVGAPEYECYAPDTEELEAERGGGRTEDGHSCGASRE
UniProt P0DPI2: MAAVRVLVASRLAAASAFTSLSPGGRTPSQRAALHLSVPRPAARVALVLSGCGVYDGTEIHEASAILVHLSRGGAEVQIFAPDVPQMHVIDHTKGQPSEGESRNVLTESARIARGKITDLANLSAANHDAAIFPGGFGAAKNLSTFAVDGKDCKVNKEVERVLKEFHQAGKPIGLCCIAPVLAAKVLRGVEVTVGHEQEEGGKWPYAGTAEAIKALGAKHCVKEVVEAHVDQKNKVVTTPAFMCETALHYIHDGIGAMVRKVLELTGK
UniProt P17655: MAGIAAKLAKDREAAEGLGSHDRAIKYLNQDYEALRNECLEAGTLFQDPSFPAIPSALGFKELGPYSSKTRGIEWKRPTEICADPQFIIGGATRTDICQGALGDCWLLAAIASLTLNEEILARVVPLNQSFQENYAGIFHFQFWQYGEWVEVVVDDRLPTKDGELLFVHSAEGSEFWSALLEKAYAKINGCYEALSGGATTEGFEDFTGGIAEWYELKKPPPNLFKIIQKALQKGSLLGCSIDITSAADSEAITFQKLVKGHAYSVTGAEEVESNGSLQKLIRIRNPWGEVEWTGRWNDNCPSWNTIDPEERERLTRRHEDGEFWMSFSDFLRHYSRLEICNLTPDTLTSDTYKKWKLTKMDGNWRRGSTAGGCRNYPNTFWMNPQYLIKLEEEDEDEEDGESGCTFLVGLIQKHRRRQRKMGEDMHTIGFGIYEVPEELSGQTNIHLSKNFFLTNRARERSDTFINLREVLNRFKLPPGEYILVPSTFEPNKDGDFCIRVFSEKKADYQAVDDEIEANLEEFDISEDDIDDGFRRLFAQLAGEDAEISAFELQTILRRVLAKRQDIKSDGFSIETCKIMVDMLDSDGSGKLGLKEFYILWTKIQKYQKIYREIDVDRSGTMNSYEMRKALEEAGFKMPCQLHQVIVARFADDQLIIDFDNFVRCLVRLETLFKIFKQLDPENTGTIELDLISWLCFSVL
UniProt Q5VW32: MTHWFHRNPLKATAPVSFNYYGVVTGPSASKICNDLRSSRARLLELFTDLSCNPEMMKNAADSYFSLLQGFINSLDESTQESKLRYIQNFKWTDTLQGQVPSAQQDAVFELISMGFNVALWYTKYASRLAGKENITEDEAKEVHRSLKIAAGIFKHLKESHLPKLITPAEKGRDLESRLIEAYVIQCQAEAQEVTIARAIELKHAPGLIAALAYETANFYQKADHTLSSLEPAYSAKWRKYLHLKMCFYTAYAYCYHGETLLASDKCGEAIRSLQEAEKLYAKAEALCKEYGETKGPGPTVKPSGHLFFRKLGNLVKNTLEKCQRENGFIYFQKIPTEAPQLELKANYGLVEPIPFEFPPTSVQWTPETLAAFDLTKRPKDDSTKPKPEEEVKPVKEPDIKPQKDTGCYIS
UniProt P55211: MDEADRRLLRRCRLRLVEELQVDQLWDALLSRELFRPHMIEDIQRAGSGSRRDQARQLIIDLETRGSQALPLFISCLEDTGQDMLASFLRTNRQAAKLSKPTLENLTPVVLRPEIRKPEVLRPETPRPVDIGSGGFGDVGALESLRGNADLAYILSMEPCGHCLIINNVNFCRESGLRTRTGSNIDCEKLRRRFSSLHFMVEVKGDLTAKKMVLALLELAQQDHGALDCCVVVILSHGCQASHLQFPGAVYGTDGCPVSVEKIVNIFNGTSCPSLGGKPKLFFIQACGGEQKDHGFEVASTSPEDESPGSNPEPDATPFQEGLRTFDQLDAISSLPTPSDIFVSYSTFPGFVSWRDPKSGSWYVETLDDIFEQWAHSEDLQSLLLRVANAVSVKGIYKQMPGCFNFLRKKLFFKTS
UniProt O94763, whole entry: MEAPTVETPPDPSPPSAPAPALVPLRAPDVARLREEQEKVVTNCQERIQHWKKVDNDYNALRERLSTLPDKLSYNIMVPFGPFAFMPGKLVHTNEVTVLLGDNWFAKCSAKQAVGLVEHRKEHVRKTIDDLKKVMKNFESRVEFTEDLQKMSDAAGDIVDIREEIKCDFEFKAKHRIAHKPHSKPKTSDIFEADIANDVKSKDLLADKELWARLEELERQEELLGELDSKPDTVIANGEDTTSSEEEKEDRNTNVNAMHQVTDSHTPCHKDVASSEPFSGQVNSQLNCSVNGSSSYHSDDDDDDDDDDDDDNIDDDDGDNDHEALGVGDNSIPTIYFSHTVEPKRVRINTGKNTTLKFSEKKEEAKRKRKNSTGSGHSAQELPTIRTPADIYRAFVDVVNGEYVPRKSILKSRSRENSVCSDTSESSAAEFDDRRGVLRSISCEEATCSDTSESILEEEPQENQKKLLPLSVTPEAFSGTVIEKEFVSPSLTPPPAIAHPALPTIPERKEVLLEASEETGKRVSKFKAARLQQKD
UniProt Q9BRT3: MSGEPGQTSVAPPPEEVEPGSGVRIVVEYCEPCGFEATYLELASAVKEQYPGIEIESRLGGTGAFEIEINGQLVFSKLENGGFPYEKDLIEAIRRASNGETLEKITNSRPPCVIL
UniProt Q6ZWK4: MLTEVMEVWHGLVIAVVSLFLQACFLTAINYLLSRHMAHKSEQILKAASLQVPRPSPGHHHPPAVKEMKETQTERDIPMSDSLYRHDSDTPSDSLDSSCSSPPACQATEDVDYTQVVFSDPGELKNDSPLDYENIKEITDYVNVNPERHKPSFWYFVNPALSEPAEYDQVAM
UniProt P47756, whole entry: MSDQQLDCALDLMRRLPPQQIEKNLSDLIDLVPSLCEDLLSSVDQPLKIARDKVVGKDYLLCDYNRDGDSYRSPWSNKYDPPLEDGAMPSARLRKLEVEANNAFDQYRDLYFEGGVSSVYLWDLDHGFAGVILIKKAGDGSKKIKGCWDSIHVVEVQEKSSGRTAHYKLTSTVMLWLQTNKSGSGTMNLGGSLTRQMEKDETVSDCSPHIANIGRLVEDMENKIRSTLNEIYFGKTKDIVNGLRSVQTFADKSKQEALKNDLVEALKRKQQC
UniProt Q9BVC5: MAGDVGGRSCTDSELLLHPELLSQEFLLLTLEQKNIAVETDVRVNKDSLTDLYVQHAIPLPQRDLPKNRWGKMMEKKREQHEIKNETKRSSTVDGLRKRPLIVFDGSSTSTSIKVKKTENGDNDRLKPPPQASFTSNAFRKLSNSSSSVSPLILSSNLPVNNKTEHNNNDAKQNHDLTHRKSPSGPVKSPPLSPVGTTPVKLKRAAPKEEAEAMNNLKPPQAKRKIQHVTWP
UniProt Q5T7W7: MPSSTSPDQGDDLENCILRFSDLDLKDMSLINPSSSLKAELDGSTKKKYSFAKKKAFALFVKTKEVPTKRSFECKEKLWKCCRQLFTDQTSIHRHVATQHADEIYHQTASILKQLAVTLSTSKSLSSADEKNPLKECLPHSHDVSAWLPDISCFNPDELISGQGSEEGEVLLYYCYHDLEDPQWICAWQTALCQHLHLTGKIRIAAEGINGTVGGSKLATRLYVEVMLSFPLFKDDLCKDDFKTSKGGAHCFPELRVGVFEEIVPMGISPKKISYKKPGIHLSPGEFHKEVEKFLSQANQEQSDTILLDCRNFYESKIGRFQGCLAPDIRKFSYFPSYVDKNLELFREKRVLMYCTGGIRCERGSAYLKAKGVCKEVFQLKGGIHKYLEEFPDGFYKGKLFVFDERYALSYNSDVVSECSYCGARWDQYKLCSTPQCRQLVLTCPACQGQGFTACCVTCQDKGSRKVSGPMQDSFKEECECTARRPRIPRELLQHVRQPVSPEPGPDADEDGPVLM
UniProt Q9Y2G2: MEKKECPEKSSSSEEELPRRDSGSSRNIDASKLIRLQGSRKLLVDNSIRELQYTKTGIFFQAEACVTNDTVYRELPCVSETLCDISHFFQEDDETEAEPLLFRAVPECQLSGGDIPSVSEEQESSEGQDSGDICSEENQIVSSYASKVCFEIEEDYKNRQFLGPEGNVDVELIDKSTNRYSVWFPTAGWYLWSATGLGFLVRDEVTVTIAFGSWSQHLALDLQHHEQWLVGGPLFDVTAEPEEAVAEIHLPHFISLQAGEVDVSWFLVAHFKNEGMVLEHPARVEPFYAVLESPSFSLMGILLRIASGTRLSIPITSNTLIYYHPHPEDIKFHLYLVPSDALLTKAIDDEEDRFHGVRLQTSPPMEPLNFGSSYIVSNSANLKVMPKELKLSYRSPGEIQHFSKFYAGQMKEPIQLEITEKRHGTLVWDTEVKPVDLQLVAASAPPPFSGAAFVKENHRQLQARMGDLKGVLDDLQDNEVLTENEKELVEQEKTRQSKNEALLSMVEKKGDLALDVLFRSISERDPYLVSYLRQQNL
UniProt Q9Y530: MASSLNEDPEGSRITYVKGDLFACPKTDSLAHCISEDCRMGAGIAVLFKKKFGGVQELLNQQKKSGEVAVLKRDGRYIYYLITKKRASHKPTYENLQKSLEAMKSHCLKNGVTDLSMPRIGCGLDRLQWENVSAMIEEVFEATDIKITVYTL
UniProt Q9HBL7: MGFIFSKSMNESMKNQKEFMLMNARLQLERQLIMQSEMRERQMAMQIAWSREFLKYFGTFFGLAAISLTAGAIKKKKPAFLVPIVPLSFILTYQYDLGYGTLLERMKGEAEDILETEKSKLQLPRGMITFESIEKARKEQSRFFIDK
UniProt Q6PGQ7, whole entry: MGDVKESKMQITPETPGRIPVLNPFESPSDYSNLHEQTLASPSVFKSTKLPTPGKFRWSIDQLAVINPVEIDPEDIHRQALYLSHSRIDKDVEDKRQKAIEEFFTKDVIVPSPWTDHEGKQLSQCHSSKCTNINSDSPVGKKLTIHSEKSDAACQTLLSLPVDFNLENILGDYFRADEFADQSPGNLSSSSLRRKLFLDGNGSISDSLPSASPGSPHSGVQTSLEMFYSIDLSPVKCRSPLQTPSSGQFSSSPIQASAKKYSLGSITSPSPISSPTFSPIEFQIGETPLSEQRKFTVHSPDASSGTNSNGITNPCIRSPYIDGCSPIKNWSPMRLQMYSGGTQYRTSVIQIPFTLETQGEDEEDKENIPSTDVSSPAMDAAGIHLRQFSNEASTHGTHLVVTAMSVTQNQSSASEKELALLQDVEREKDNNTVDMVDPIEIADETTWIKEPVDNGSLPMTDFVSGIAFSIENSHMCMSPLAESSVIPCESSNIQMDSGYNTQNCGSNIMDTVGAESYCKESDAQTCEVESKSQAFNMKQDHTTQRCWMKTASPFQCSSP
UniProt Q9HA77: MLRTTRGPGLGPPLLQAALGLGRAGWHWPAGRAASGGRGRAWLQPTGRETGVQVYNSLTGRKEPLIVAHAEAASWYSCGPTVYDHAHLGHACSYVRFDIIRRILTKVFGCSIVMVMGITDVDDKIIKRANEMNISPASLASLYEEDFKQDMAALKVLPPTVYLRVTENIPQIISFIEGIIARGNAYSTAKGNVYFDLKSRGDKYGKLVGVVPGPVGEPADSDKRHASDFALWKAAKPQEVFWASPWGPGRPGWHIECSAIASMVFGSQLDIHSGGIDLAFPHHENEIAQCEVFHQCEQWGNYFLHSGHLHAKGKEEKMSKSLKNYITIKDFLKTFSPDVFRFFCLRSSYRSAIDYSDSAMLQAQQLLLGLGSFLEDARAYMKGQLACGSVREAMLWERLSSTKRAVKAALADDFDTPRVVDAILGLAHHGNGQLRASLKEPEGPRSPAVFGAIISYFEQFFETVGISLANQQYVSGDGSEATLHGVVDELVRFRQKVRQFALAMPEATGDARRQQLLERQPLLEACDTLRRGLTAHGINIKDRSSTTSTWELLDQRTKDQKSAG
UniProt Q8NI60: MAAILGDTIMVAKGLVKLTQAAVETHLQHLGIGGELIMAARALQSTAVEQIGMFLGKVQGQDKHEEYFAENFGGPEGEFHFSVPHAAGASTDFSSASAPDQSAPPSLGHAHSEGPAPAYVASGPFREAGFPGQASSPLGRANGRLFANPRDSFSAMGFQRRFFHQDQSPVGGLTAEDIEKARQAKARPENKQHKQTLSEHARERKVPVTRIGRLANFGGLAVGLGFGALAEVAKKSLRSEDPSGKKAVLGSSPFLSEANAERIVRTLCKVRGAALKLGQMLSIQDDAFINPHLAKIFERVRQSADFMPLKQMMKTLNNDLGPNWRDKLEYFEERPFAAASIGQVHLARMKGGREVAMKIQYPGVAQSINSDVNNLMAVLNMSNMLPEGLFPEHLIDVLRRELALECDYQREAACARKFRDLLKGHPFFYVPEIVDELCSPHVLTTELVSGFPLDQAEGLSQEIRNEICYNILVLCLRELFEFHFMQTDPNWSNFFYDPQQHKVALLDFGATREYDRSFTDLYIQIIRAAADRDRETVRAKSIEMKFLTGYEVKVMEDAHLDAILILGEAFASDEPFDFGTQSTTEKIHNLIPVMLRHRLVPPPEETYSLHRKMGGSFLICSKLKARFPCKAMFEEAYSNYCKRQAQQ

This is one part of the list.

Compound in the experiment: COc1ccc(Cn2ccc3ccc(C(=O)NO)cc32)cc1
Nature of the experiment: dose-dependent thermal stabilisation call (2D-TPP, DLPTP, 10% FDR) (binary (1 = stabilised)); higher = stabilised by the compound. Particulars: system: HL-60 intact cells; concentration range 0.04-10 µM.
As for C18ORF8 (UniProt Q96DM3), the “dose-dependent thermal stabilisation call” value is inactive: 0. The result for C18ORF22 (UniProt Q8N0V3) reads inactive: 0. Regarding C21ORF33 (UniProt P0DPI2), the “dose-dependent thermal stabilisation call” value was inactive: 0. The result for CAPN2 (UniProt P17655) reads inactive: 0; that for C1ORF156 (UniProt O95568), inactive: 0; that for C1ORF58 (UniProt Q5VW32), inactive: 0. Turning to C19ORF52 (UniProt Q9BSF4), the “dose-dependent thermal stabilisation call” value is inactive: 0. With CASP9 (UniProt P55211), the “dose-dependent thermal stabilisation call” value was inactive: 0.

For C19ORF66 (UniProt Q9NUL5), the “dose-dependent thermal stabilisation call” value was inactive: 0. The result for C19ORF2 (UniProt O94763) reads inactive: 0; that for C17ORF37 (UniProt Q9BRT3), inactive: 0; that for CAT (UniProt P04040), inactive: 0. For C5ORF24 (UniProt Q7Z6I8), the “dose-dependent thermal stabilisation call” value is inactive: 0. The result for C17ORF75 (UniProt Q9HAS0) reads inactive: 0; that for C1ORF186 (UniProt Q6ZWK4), inactive: 0. C4ORF43 (UniProt Q96EY4): the “dose-dependent thermal stabilisation call” value is inactive: 0. The result for C19ORF62 (UniProt Q9NWV8) reads inactive: 0; that for CASP7 (UniProt P55210), inactive: 0; that for C20ORF27 (UniProt Q9GZN8), inactive: 0.

For CAPZB (UniProt P47756), the “dose-dependent thermal stabilisation call” value was inactive: 0. Regarding C7ORF50 (UniProt Q9BRJ6), the “dose-dependent thermal stabilisation call” value was inactive: 0.

Turning to C2ORF49 (UniProt Q9BVC5), the “dose-dependent thermal stabilisation call” value was inactive: 0. As for C9ORF97 (UniProt Q5T7W7), the “dose-dependent thermal stabilisation call” value is inactive: 0. The result for C9ORF86 (UniProt Q3YEC7) reads inactive: 0; that for C8ORF38 (UniProt Q330K2), inactive: 0. The result for C2ORF69 (UniProt Q8N8R5) reads inactive: 0; that for C19ORF53 (UniProt Q9UNZ5), inactive: 0. Take C20ORF7 (UniProt Q5TEU4): the “dose-dependent thermal stabilisation call” value was inactive: 0. The figure for CARD8 (UniProt Q9Y2G2) is inactive: 0; for C6ORF130 (UniProt Q9Y530) it is active: 1; for C16ORF70 (UniProt Q9BSU1) it is inactive: 0. As for C9ORF46 (UniProt Q9HBL7), the “dose-dependent thermal stabilisation call” value is inactive: 0. The figure for C3ORF64 (UniProt Q5NDL2) is inactive: 0. The result for CALR (UniProt P27797) reads inactive: 0. For the target C13ORF34 (UniProt Q6PGQ7), the “dose-dependent thermal stabilisation call” value was inactive: 0.

For the target CARS2 (UniProt Q9HA77), the “dose-dependent thermal stabilisation call” value is inactive: 0. The result for CABC1 (UniProt Q8NI60) reads inactive: 0.
